Source: patent publication US20260085293A1, “SOLUTION AND METHOD FOR TRANSPORTING OR STORING BODY FLUID SAMPLE” (PROVIGATE INC., priority 2023, published 2026)

system: glycoalbumin; assay: Influence of preservatives in the solution on GA values in the HPLC assay; details: preservative in the solution; not illustrated

| Structure (SMILES) | tendency of GA values in the HPLC assay when the component is present |
| --- | --- |
| C[C@@H](O)[C@H]1C(=O)N2C(C(=O)O)=C(S[C@@H]3CN[C@H](C(=O)N(C)C)C3)[C@H](C)[C@H]12 [Meropenem trihydrate, reference compound] | higher than actual values |
| Cn1sc(Cl)cc1=O [CMIT] | higher than actual values |
| Cn1sccc1=O [MIT] | higher than actual values |

Some entries repeat one wording, which the source may state once for all of them.
